The source of these data is patent CN114685666A.

Amino acid sequences for entries named in this document (tags omitted). A change or cut given only in a name is not applied to a line headed by its entry. Chains listed by the source or under a name are the forms on record and can include a tag or linker.
人MSLN.His抗原 (MSLN.His蛋白, 义翘神州科技股份有限公司, MSN-H5223) (Q13421, form named): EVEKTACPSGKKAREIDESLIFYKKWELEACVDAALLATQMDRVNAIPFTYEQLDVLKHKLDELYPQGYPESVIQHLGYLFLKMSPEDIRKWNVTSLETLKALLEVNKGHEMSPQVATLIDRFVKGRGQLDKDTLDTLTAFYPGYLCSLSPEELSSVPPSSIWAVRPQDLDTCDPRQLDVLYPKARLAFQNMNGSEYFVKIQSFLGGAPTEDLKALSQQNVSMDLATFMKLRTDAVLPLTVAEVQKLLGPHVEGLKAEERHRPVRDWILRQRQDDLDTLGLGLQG

No constants are given. Whether binding was seen depends on the method and setting. Some entries that bind do so weakly or less than the wild type.

This assay addresses 人MSLN.His抗原 (MSLN.His蛋白, 义翘神州科技股份有限公司, MSN-H5223) (human) (UniProt Q13421). Nature of the assay: ELISA screening of TG1 supernatants after phage panning, sequence analysis. In general terms: An ELISA detects its analyte on a solid surface through an enzyme-linked reagent.

B1: M2339 纳米抗体克隆 (VHH expressed in TG1 after phage panning) (VHH)
VHH: QLQLGASGGGLVQPGGSLRLSCALSGFTLRELDEFAIGWFRQAPGKEREGVSCISGTGGITHYADSVKGRFTISRDIAKTTVYLQMNSLNSEDTAVYYCAADERCTDRLIRPPTYWGQGTQVTVSS
In the case of B1, the binding entry is “binds”.
